From publication PMC10163288 come the findings set out here.

The other results are listed elsewhere or left out.

The chains are these.
B1: il10ra_site1_sap_11_mot_HHH_b1_00456_000000263_0001_1_17_H_._HHH_b2_06141_0001_0000200005_0000001_0_0001_af2pred_0001 (protein)
chain: SSSSDIAERLVELALEAARLAAERGDPEAVRRALEQAEHLAKLNNNPELEEEVKELEEELSSSSS
B2: il10ra_site1_sap_27_mot_HHH_b2_07569_000000265_0001_38_56_H_._HHH_b1_08691_0001_0000200011_0000001_0_0001_af2pred_0001 (protein)
chain: SSSSDHNEEAIKRLLKAAKLLEDPERAKLAVRFALALARALNNEELEEEIRKLLEELEEGSSSSS
B3: il10ra_site1_sap_21_mot_HHH_b1_00682_000000211_0001_1_20_H_._HHH_b2_01629_0001_0000300032_0000001_0_0001_1 (protein)
chain: SSSSSRELYELSREVARLDHEGDFEEAERVVREAIELAEEENNWNMLFNLRHMLRVIEEELSSSS
B4: il10ra_site1_sap_13_mot_HHH_b1_04693_000000238_0001_19_36_H_._HHH_b1_07804_0001_0000300023_0000001_0_0001 (protein)
chain: SSSSDEELEELFRLLREAIELHSEGNEEEAEKVLEEVIELARELGNRLMLLQAEFALRMISSSSS
B5: il10ra_site1_sap_25_mot_HHH_b1_03260_000000175_0001_42_57_H_._HHH_b2_05910_0001_0000300016_0000002_0_0001 (protein)
chain: SSSSDEEVEELEEEAEEQLERLLREGNHQEAFRLLEEVARRLLELGDPEAVRRLIHFFIRISSSS
B6: il10ra_site1_normal_mot_HHH_b2_07569_000000265_0001_38_56_H_._HHH_b1_00069_af2_0001_0000200023_0000001_0 (protein)
chain: SSSSDEEERLKELEEELEEAVRRGDEQLVLELAIEALRLAFRLSDDEVVQEIWELVKKAFSSSSS
B7: il10ra_site1_normal_mot_HHH_b2_07579_000000275_0001_1_19_H_._HHH_b2_01201_0001_0000100002_0000001_1_af2pred_0001 (protein)
chain: SSSSSSSEVEEILRLQEEALHIEDPEEAREVLEEAIELAEKAGDEVIVKILRRLLKLLSSSSSSS
B8: il10ra_site1_sap_12_mot_HHH_b1_06256_000000091_0001_42_58_H_._HHH_b1_03525_0001_0000200007_0000001_0_0001_af2pred_0001 (protein)
chain: SSSSTSEEDFKLALRLARQLAEAENDEEAKEKIEELEEEYREKKDPQILHELIRLIKELANSSSS
B9: il10ra_site1_sap_26_mot_HHH_b1_03531_000000273_0001_41_54_H_._HHH_b1_06918_0001_0000200023_0000001_0_0001_af2pred_0001 (protein)
chain: SSSSDAERSARILALFAERALKEGDEEAVELTIKLLKSLAEATNDPEIEELARELEELLGSSSSS
B10: il10ra_site1_sap_25_mot_HHH_b1_01879_000000050_0001_1_18_H_._HHH_b1_03473_af2_0001_0000100001_0000001_1_0001_af2pred_0001 (protein)
chain: SSSSSEDEERIEELIERIEELLKEGDEEKVLKLLLELAQLALKTEDEEATRFVLEVAELLSSSSS
B11: il10ra_site1_normal_mot_HHH_b2_08144_af2_000000046_0001_38_52_H_._HHH_b1_06242_af2_0001_0000400022_0000001_0 (protein)
chain: SSSSDEMEQLFKLLREIAELLHDGDPEEARELIEEAKELAEELNNELARWQLEFLEREAKSSSSS
B12: il10ra_site1_sap_20_mot_HHH_b1_05083_af2_000000148_0001_42_57_H_._HHH_b1_04853_af2_0001_0000100004_0000001_0_0001 (protein)
chain: SSSSNESYRLSREANEELNEAWREGDDELLREIVKEVERLLEELNDPLALFVFRSVVEILRSSSS
B13: il10ra_site1_normal_mot_HEEHE_1605_000000211_0001_40_56_H_._6a4d44608330000f36d08f4dbbd7f703_0001_0001_0000500016_0000001_0 (protein)
chain: SVEEKLKELLEELGVPPHEIEVILFALERLAEQNGDPERAVRILSWSLQQAGNPELAEAVERALK
B14: il10ra_site1_normal_mot_e1dd4851c59bc1cdde016f988f6856bd_0001_1_000000200_0001_16_31_H_._HEEHE_1797_0001_0000300012_0000001_0_af2pred_0001 (protein)
chain: SDEERFKLAVEAIAELAGVPSVEVEEENGEITVTVEGTDEAVRRAELMVRFVARAAGLRVTVETR
B15: il10ra_site1_normal_mot_HHH_b2_03425_000000200_0001_22_39_H_._HHH_b1_08665_0001_0000100007_0000001_0 (protein)
chain: SSSSDELERIYELLREVIELIKEGDDEEAEELMKELEELIREANSPVMEVLLRFLERELNSSSSS
B16: il10ra_site1_normal_mot_HHH_b1_06994_000000193_0001_40_55_H_._HHH_b1_07438_0001_0000400027_0000002_1 (protein)
chain: SSSSSDQEEELVEAALRLAKQIDDPEARELILLAAEIRAEELNNEELEELVEEVKQELKSSSSSS
B17: il10ra_site1_normal_mot_HHH_b1_03342_000000127_0001_23_39_H_._ems_3hM_582_0001_0000600024_0000001_1 (protein)
chain: SSTVEELAREAEEILEELAKLNPEYEWAARFWEHILRYAVERNDERAVRAVFHAVRALEEALSSS
B18: il10ra_site1_normal_mot_be5bd3f495b2ba9d9abb66d04d14a4bf_0001_000000065_0001_37_51_H_._HHH_b1_01400_0001_0000200014_0000001_0 (protein)
chain: SSSSDEELERLVEEVVEKFKLSEEAKRSLEYLAEHQLELGASEEEIERSLEAAARLLQMSESSSS

The experiment deals with il10ra, Q13651. Kind of experiment: yeast display titration.
B1: the “apparent Kd” value was “inactive: no binding seen”.
Take B2: the “apparent Kd” value was “inactive: no binding seen”.
Take B3: the “apparent Kd” value is “inactive: no binding seen”.
Next, B4: “inactive: no binding seen”.
The same measure for B5: “inactive: no binding seen”.
Next, B6: “inactive: no binding seen”.
On to B7, for which the “apparent Kd” value is “inactive: no binding seen”.
The same measure for B8: “inactive: no binding seen”; for B9: “inactive: no binding seen”; for B10: “inactive: no binding seen”.
Next, B11: “inactive: no binding seen”.
The same measure for B12: “inactive: no binding seen”; for B13: “inactive: no binding seen”.
As for B14, the “apparent Kd” value is “inactive: no binding seen”.
Consider B15, for which the “apparent Kd” value was “inactive: no binding seen”.
On to B16, for which the “apparent Kd” value is “inactive: no binding seen”.
With B17, the “apparent Kd” value is “inactive: no binding seen”.
Next, B18: “inactive: no binding seen”.
